The other results are listed elsewhere or left out.
Biological target: OsWRKY34 (Oryza sativa, UniProt Q0JBA9 1-250)
Assay: protein-binding microarray (RPBM); PBS, 2% BSA, 51.3 ng/ul salmon testes DNA, 50 uM zinc acetate, 200 nM TF, 25 C, 1 h; high values mean tight binding
Conditions: protein: recombinant; tags: N-terminal polyhistidine and DsRed monomer fusion (pET32a); label: CyDye5-dUTP incorporated in the synthesized complementary strand; 3' TTTTT single-stranded linker to array surface; dsDNA, one strand shown
Method in brief: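 Binding signal here means per-feature fluorescence intensity in arbitrary units. The values were read on an Axon 4000B scanner after a custom Agilent array, double-stranded by primer extension with Cy5-dUTP, was incubated with 200 nM protein at 25 °C for 1 h in PBS with 2% BSA, salmon testes DNA and 50 µM zinc acetate, then washed. The proteins were transcription factors with an N-terminal polyhistidine tag and DsRed, expressed in E. coli BL21-CodonPlus and purified on Ni–NTA.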

Amino acid sequences for entries named in this document (tags omitted).
UniProt Q0JBA9, entry or part of it: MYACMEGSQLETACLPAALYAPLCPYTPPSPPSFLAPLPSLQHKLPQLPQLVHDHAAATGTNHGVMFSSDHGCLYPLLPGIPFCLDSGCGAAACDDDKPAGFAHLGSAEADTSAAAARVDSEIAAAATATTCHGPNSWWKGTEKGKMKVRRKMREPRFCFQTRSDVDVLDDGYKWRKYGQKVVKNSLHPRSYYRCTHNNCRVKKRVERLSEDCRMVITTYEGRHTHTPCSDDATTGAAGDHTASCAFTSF

Sequence | binding signal
GGTAGTTCCCTGGCCTTGACGATCAATTGTTCATCACCATCGGAGTCACCTAGTGCAG | 8440 fluorescence intensity (a.u.)
TCTTATTTATGTGCATCCCTCGCTATGACTAATCTTGTCTCGGAGTCACCTAGTGCAG | 8500 fluorescence intensity (a.u.)
ATTTCTATTTCTACAAATATGACTAGCTAGCGTTTATATACGGAGTCACCTAGTGCAG | 8300 fluorescence intensity (a.u.)
CGAGTCTAGTATCAATTGGATATCTGGTATTTTTTTTATTCGGAGTCACCTAGTGCAG | 8280 fluorescence intensity (a.u.)
ACTTTTGGTGGACCTTGGTTGTTTGGTCTGTTTCTCTCAGCGGAGTCACCTAGTGCAG | 8680 fluorescence intensity (a.u.)
GGAGTCCGTACTATCTGTAGCCCACTGCTCTTCTCTCCCTCGGAGTCACCTAGTGCAG | 8760 fluorescence intensity (a.u.)
CGATATCTACCCATTCTCTACGCAGAATTTGCGATCCGCCCGGAGTCACCTAGTGCAG | 8270 fluorescence intensity (a.u.)
TTTCTCACATGTTTAACCATTCGTCTTATTCAAAAAATTTCGGAGTCACCTAGTGCAG | 8100 fluorescence intensity (a.u.)
CAATGAGGTGCTTTGAAATCATTTCGCTTTCACTACTTTACGGAGTCACCTAGTGCAG | 8310 fluorescence intensity (a.u.)
TGCCCAGTGTCGCCATTGCTATGCCTTGCGAGCATTCCTCCGGAGTCACCTAGTGCAG | 9270 fluorescence intensity (a.u.)
AACACCTCGAAATCAATCGGCCGGTCAACCAAACTACCCTCGGAGTCACCTAGTGCAG | 8210 fluorescence intensity (a.u.)
GATTCGTCTCGTAATTTACATGTAAATTGTGTAATGTTTTCGGAGTCACCTAGTGCAG | 8330 fluorescence intensity (a.u.)
CCTCACCCTATGCTCCTGTGTTTTGTAGTCTTTCGTAACACGGAGTCACCTAGTGCAG | 8220 fluorescence intensity (a.u.)
AAATCTCTAATTCATCCATGTTGATCCATATATTTTTCTCCGGAGTCACCTAGTGCAG | 9770 fluorescence intensity (a.u.)
GGGACGGAGGAGGGGCGATGACACGGTACGGGAGATAGTGCGGAGTCACCTAGTGCAG | 8960 fluorescence intensity (a.u.)
TTAACTGCAACCATAAGTTTCTGCGCCTAACTTTGATCGTCGGAGTCACCTAGTGCAG | 8850 fluorescence intensity (a.u.)
ATCGTAATGCCACTGAATTCCAGCTCTTTGACCGTACGGGCGGAGTCACCTAGTGCAG | 10100 fluorescence intensity (a.u.)
CCAATCCTAGTTTCTGTTCTCTTATTCCCAGTCCCCTGCTCGGAGTCACCTAGTGCAG | 8090 fluorescence intensity (a.u.)
GTCCTTTAATTTTCTTTTCTTTTTTTTTTCGAACGCGCAACGGAGTCACCTAGTGCAG | 8220 fluorescence intensity (a.u.)
CCAGCCCATACTCACGCTCCCGGCCGGCCCATCCATGGCCCGGAGTCACCTAGTGCAG | 8340 fluorescence intensity (a.u.)
AATACTAAATAAGTATTTGTTTGTTTTTTTTAAGGAGGGGCGGAGTCACCTAGTGCAG | 9580 fluorescence intensity (a.u.)

Pulled one by one from the list above (three):
Sequence | binding signal
ACTTTTGGTGGACCTTGGTTGTTTGGTCTGTTTCTCTCAGCGGAGTCACCTAGTGCAG | 8680 fluorescence intensity (a.u.)
AAATCTCTAATTCATCCATGTTGATCCATATATTTTTCTCCGGAGTCACCTAGTGCAG | 9770 fluorescence intensity (a.u.)
AACACCTCGAAATCAATCGGCCGGTCAACCAAACTACCCTCGGAGTCACCTAGTGCAG | 8210 fluorescence intensity (a.u.)

Later entries

Sequence | binding signal
CGCCTGACATCCCGTTGTATTTCTTTCATATAACCGCTCGCGGAGTCACCTAGTGCAG | 9400 fluorescence intensity (a.u.)
TACACACCATCATCTTTTTTTCCCCTTTTGTTTCATCTCCCGGAGTCACCTAGTGCAG | 9900 fluorescence intensity (a.u.)
GGACTCTTTTCATTCATTCCTTCACTCCATAGGGGTAGGACGGAGTCACCTAGTGCAG | 12100 fluorescence intensity (a.u.)
GAAATATCAACAACCCTATAAAAAAAGTCAACCCATGTACCGGAGTCACCTAGTGCAG | 9120 fluorescence intensity (a.u.)
GTCCAGATTCGTTAAACTATTGTGTCTCATTTTTAACTAGCGGAGTCACCTAGTGCAG | 8810 fluorescence intensity (a.u.)
AATTTTCGTTACTGTATTCGCACCGGTTCATTTTCGCTCCCGGAGTCACCTAGTGCAG | 9150 fluorescence intensity (a.u.)
CGCCCACCTCCGCTCCGCTGCCACGCTCGCCCTCCGCCACCGGAGTCACCTAGTGCAG | 11600 fluorescence intensity (a.u.)
GCCCACGCACGACGCGCCTCCCACGCCCACACTGCACCGCCGGAGTCACCTAGTGCAG | 8180 fluorescence intensity (a.u.)
TCCATCGAAATCCTTCCGCCGCGTTTCAAATTTCTTTCTCCGGAGTCACCTAGTGCAG | 9350 fluorescence intensity (a.u.)
GGTTGACCGTAGTCAACTCGCCACGTTGACTAGAACCGAGCGGAGTCACCTAGTGCAG | 17900 fluorescence intensity (a.u.)
ACATTTCTCTCTTTCTTTTATATTGATTTTCTTGCTCTTTCGGAGTCACCTAGTGCAG | 8490 fluorescence intensity (a.u.)
GTTTAGAACACGGCCCTAATGTCTTTATTTGATTGATCATCGGAGTCACCTAGTGCAG | 9400 fluorescence intensity (a.u.)
ATCATATTGTTTTCATCATGTAACATGTCCACTTTATTCTCGGAGTCACCTAGTGCAG | 8550 fluorescence intensity (a.u.)
CATGGGTTTTTTCTTCCTTTTCCTTTGAGAGATATGATCACGGAGTCACCTAGTGCAG | 8440 fluorescence intensity (a.u.)
TCCCTGTCATTCCATCGTTTGTTCCATCCCATGGACCGGCCGGAGTCACCTAGTGCAG | 9740 fluorescence intensity (a.u.)
TTCGGTTGATGCCATGGTAACTGTCTTGCTATGTATGTGTCGGAGTCACCTAGTGCAG | 9870 fluorescence intensity (a.u.)
CTTTCCTTTTTCCTTTGTCTCACGTTTTCCCCTCCCAGAACGGAGTCACCTAGTGCAG | 8060 fluorescence intensity (a.u.)
TTCTGAATGCCTTTTCGTTTATGTATATACTTATTCGAACCGGAGTCACCTAGTGCAG | 9300 fluorescence intensity (a.u.)
ACTTATGTTTTGCTGCTCTGCGCAGAGAGCTGTCCTTGAACGGAGTCACCTAGTGCAG | 8320 fluorescence intensity (a.u.)
GTTCGCTGACTGATTGATTTCTTTTCAATCCCCGCGCGCGCGGAGTCACCTAGTGCAG | 11700 fluorescence intensity (a.u.)
AGCATTTGTTGTTTTGCGCATACTGACTTGGTAATAGCTACGGAGTCACCTAGTGCAG | 10400 fluorescence intensity (a.u.)
